Measurements from US20110144303A1 (AILERON Therapeutics, Inc., priority 2008, published 2011).
“And” between values parts separate entries of the source, which are not always exact repeats. Identical values can stand only once.

Experiment: general procedure: Fmoc solid-phase peptide synthesis; Rink AM resin (polystyrene); HCTU
Details: whole synthesis, scale 0.1 mmol, HCl exchange by lyophilisation for SP-41 and SP-27 type peptides, cyclic, sequence written open; run 1

**Q.** Which isolated mass does the source give for Ac-IWIAQELR#sIGD#sFNAYYARR-NH2 here?
**A.** Its isolated mass is 5.4 mg and 5.7 mg.
